Experimental data from the supplement of paper PMC5949888.
Most values lie at the floor of the assay. Slopes are relative: functional sequences can read slightly below zero.

Each substance was assayed on Saccharomyces cerevisiae PS128 hsf1 delta, HSF1(1-493) fusion (assay: growth estimate (transactivation domain function in HSF1 fusion, heat-shock survival) (a.u. (slope of normalised read count over time)); higher = stronger growth at 37°C, i.e. more transactivation activity). Settings: library: random library.

| Substance | growth estimate |
| --- | --- |
| YDRCCRHPGARAGDHIPAVP | < -0.25 |
| YECEQPSSTLVPRASIHK | < -0.25 |
| YECKSV | < -0.25 |
| YEEDRDCCPGRVSGSCFAAT | < -0.25 |
| YEEPRRCLWHAGLRGLKQ | < -0.25 |
| YEG | < -0.25 |
| YEHPGRKSFLKRQGITYPET | -0.246 |
| YEISGLNNSSLLCRGATLPD | < -0.25 |
| YELALVP | < -0.25 |
| YELWEHYRCGP | -0.226 |
| YEQGMRRHSHC | < -0.25 |
| YEQKAGAWRVGVKSYVAVRR | < -0.25 |
| YERLE | < -0.25 |
| YETFGKPKCGYGGSPSDRKG | < -0.25 |
| YETGMDKPRW | < -0.25 |
| YEVTRSIIRLLISVGQDLQL | < -0.25 |
| YFADR | < -0.25 |
| YFCD | < -0.25 |
| YFIPMGCPKPAGGIRK | < -0.25 |
| YFLRGSTIGVR | < -0.25 |
| YFRVGFINGKLDEDLV | < -0.25 |
| YFVRVSMLMP | < -0.25 |
| YFYTQRSEQRYSACQCKNRV | < -0.25 |
| YGAARTGLSYRCEERDRPVQ | < -0.25 |
| YGAL | < -0.25 |
| YGALAATYLRDDVGSLG | < -0.25 |

Looked up above.
growth estimate, YFLRGSTIGVR reads < -0.25
growth estimate, YGAL reads < -0.25
growth estimate, YGALAATYLRDDVGSLG reads < -0.25
growth estimate, YEEPRRCLWHAGLRGLKQ reads < -0.25

Following part

| Substance | growth estimate |
| --- | --- |
| YGDQKIRR | < -0.25 |
| YGFARTSDRCLVLFRAGNSL | < -0.25 |
| YGGEPHARRRGLCHVARA | < -0.25 |
| YGGIDAWSGD | -0.191 |
| YGGTGPWTRQIKKVTATRDI | < -0.25 |
| YGIRAIRSANGAGQVLTM | < -0.25 |
| YGIRTVYFRPEPRIGCIAPK | < -0.25 |
| YGIVGRGRQYMHKL | < -0.25 |
| YGLGAGKTGCNVVASTAPVG | < -0.25 |
| YGLYGFACLFAAA | < -0.25 |
| YGNVSHDDKVYNPKTIQGCM | < -0.25 |
| YGQIEGVWKAGHKRRRFEDQ | -0.231 |
| YGRHTWGHASIDMK | < -0.25 |
| YGRLHIRKDVIDRPH | < -0.25 |
| YGSP | < -0.25 |
| YGSVTIVVPHDSGYTPCSNG | < -0.25 |
| YGTG | < -0.25 |
| YGVQLHGTRGASLRRHNL | < -0.25 |
| YGWESMHLPRQAMEVVYPGL | < -0.25 |
| YGWHRPPTSAGEQDRLVAAM | < -0.25 |
| YGYVYNPYLMEKLGRRATVG | -0.248 |
| YHCILFQLFYLSET | < -0.25 |
| YHFKRLTRALRDSHPCEGRY | < -0.25 |
| YHGVEGTTLLYYDFIIKHAG | < -0.25 |
| YHGWISEATVDFLEGL | < -0.25 |
| YHHRVPNGMRHHTAHMTRVA | < -0.25 |

| Substance | growth estimate |
| --- | --- |
| YHNRGITNND | < -0.25 |
| YHPTAGCIFVEIRHSGRFAC | < -0.25 |
| YHRVHQDVEADGP | -0.245 |
| YHS | < -0.25 |
| YIAGATPTFARSRLSATRLP | < -0.25 |
| YIAPSSLTVILRPLPTLAAC | < -0.25 |
| YIDCSG | < -0.25 |
| YIFGR | < -0.25 |
| YIHTRGSYMIINFRTSITYP | < -0.25 |
| YIITFFPRWPCVVLFHDCLP | < -0.25 |
| YILCVSECLLK | < -0.25 |
| YILYMRRLC | < -0.25 |
| YIRLHAAERKIFRYRPPWHN | < -0.25 |
| YIRQVIPGAQIGSVVLTPLA | < -0.25 |
| YISAVTPKCRCCRRLIVSTE | < -0.25 |
| YITETRRGSGLRT | < -0.25 |
| YKAGSYRTRFDGSLGFESPR | < -0.25 |
| YKFGARCCSAPYPRASYKLT | < -0.25 |
| YKGRQKMNGEAVDCPWN | < -0.25 |
| YKGSIEKSLLALKGLSGTQK | < -0.25 |
| YKPAESSTCNKERRTPGICN | < -0.25 |
| YKRERLQKVHTQRRASAAD | < -0.25 |
| YKVREGLS | < -0.25 |
| YKVRTRRRFCIGSRTASDTT | < -0.25 |
| YLAELDQVRHPAQMVA | < -0.25 |
| YLAGRSGGPLQAMNAGCRKC | < -0.25 |
